According to PubChem BioAssay AID330 (DTP/NCI, 2004):
The list does not hold the whole screen: it gathers tests that were run many times, whatever their T/C, doses with no T/C, and many T/C values between a quarter and a half above the control. Further doses and runs are listed elsewhere. T/C is the treated group as % of the vehicle group. Some entries give survivors of the animals treated and no T/C: the source holds a T/C of zero for them, seemingly a mark for toxic or unscored doses. Some doses without a T/C left all or most animals alive at the check, yet need not have been tolerated: the source hardly ever lists a survival T/C far under the control, and the zero likely stands for such cases as well. Survivors were counted at the toxicity check, usually on the fifth day, unless a day is given; later deaths do not show. Schedule codes are those of the source, taken here to give the interval after Q, in days (D) or hours (H), and the number of doses after X. Some entries were tested several times; the results are listed from low to high. Additions like (4×) stand for listed records that agree. Where survival is the endpoint, this PubChem deposit counts one and a half times the control or more as active, and values a quarter to a half above the control carry no call in these data; other NCI protocols may use other cut-offs. Some T/C values carry the count of animals alive at the toxicity check (mostly the fifth day); without a count, all were alive then.

Tested on: P388 leukemia ip, CD2F1 mice, survival T/C
Assay: NCI In Vivo Anticancer Drug Screen. Data for tumor model P388 Leukemia (intraperitoneal) in CD2F1 (CDF1) mice
Conditions: T/C endpoint: median survival time, higher T/C = longer survival
[1] = dose: 200.0 mg/kg/injection, schedule: Q01DX009 (ip), vehicle: saline with Tween-80
[2] = dose: 100.0 mg/kg/injection, schedule: Q01DX009 (ip), vehicle: saline with Tween-80
[3] = dose: 50.0 mg/kg/injection, schedule: Q01DX005 (ip), vehicle: saline with Tween-80
[4] = dose: 100.0 mg/kg/injection, schedule: Q01DX005 (ip), vehicle: saline with Tween-80
[5] = dose: 200.0 mg/kg/injection, schedule: Q01DX005 (ip), vehicle: saline with Tween-80
[6] = dose: 50.0 mg/kg/injection, schedule: Q01DX005 (ip), vehicle: Klucel (hydroxypropylcellulose) (HPC)
[7] = dose: 100.0 mg/kg/injection, schedule: Q01DX005 (ip), vehicle: Klucel (hydroxypropylcellulose) (HPC)
[8] = dose: 200.0 mg/kg/injection, schedule: Q01DX005 (ip), vehicle: Klucel (hydroxypropylcellulose) (HPC)
[9] = dose: 400.0 mg/kg/injection, schedule: Q04DX002 (ip), vehicle: saline with Tween-80
[10] = dose: 100.0 mg/kg/injection, schedule: Q01DX009 (ip), vehicle: saline
[11] = dose: 400.0 mg/kg/injection, schedule: Q04DX003 (ip), vehicle: saline with Tween-80
[12] = dose: 6.25 mg/kg/injection, schedule: Q01DX009 (ip), vehicle: water
[13] = dose: 12.5 mg/kg/injection, schedule: Q01DX009 (ip), vehicle: water
[14] = dose: 25.0 mg/kg/injection, schedule: Q01DX009 (ip), vehicle: water

c1ccc(-[n+]2ccc(-c3cc[n+](-c4ccccc4)cc3)cc2)cc1
survivor count (dose: 200.0 mg/kg/injection, schedule: Q04DX002 (ip), vehicle: Klucel (hydroxypropylcellulose) (HPC)): 1 of 6 | survivor count (dose: 400.0 mg/kg/injection, schedule: Q04DX002 (ip), vehicle: Klucel (hydroxypropylcellulose) (HPC)): 1 of 6

Cc1cc(Br)c(OC(=O)Nc2cccc(Cl)c2Cl)cc1C
survivor count [1]: 6 of 6

CCCCCCC(=O)/C=C/c1ccc(OC(=O)c2ccc(OC)cc2)cc1
survivor count (dose: 25.0 mg/kg/injection, schedule: Q01DX009 (ip), vehicle: saline with Tween-80): 5 of 6 | survivor count [2]: 6 of 6 | survivor count [1]: 6 of 6

Cc1nc2oc(=O)cc(C)c2c(=O)[nH]1
survivor count (dose: 240.0 mg/kg/injection, schedule: Q01DX005 (ip), vehicle: Klucel (hydroxypropylcellulose) (HPC)): 0 of 6

CCN=C1C=CC(=C(c2ccc(N(CC)CC)cc2)c2ccc(N(CC)CC)cc2)c2ccccc21
survivor count (dose: 25.0 mg/kg/injection, schedule: Q01DX005 (ip), vehicle: saline with Tween-80): 0 of 6 | T/C [3]: 121 % of control | survivor count [3]: 0 of 6 | survivor count [4]: 0 of 6 (2×) | survivor count [5]: 0 of 6

N#CC1=CC2C3C(=O)N(c4ccccc4)C(=O)C3C1N(Cc1ccccc1)C2c1ccccc1 (stereo unspecified)
survivor count [4]: 6 of 6 | survivor count (dose: 100.0 mg/kg/injection, schedule: Q04DX002 (ip), vehicle: saline with Tween-80): 6 of 6

O=[N+]([O-])c1c(N2CCN(CCO)CC2)ccc2nonc12
survivor count (dose: 200.0 mg/kg/injection, schedule: Q01DX009 (ip), vehicle: suspension in saline): 5 of 6

CC(=O)CC(C)=NCC(C)N=C(C)CC(C)=O.c1cc[c]([Sn][c]2ccccc2)cc1 (stereo unspecified)
T/C (dose: 2.5 mg/kg/injection, schedule: Q01DX009 (ip), vehicle: saline): 142 % of control | survivor count (dose: 10.0 mg/kg/injection, schedule: Q01DX009 (ip), vehicle: saline): 0 of 6 | survivor count (dose: 20.0 mg/kg/injection, schedule: Q01DX009 (ip), vehicle: saline): 0 of 6

Cc1cc(O)c2c(c1)C(=O)C(c1c(C)cc3c(c1O)C(=O)C1OC1C3=O)=CC2=O (stereo unspecified)
survivor count (dose: 12.5 mg/kg/injection, schedule: Q01DX005 (ip), vehicle: Klucel (hydroxypropylcellulose) (HPC)): 0 of 5 | survivor count (dose: 25.0 mg/kg/injection, schedule: Q01DX005 (ip), vehicle: Klucel (hydroxypropylcellulose) (HPC)): 0 of 5 | survivor count [6]: 0 of 5 | survivor count [7]: 0 of 5 | survivor count [8]: 0 of 5

O=CC(CO)C(C=O)n1ncc2ccccc21 (stereo unspecified)
T/C (dose: 8.0 mg/kg/injection, schedule: Q01DX009 (ip), vehicle: saline with Tween-80): 125 % of control | T/C (dose: 32.0 mg/kg/injection, schedule: Q01DX009 (ip), vehicle: saline with Tween-80): 127 % of control | T/C (dose: 64.0 mg/kg/injection, schedule: Q01DX001 (ip), vehicle: saline): 126 % of control | survivor count (dose: 64.0 mg/kg/injection, schedule: Q01DX009 (ip), vehicle: saline with Tween-80): 0 of 6 | survivor count (dose: 128.0 mg/kg/injection, schedule: Q01DX001 (ip), vehicle: suspension in saline): 2 of 6 | survivor count (dose: 128.0 mg/kg/injection, schedule: Q01DX009 (ip), vehicle: saline with Tween-80): 0 of 6

COC(=O)c1noc2c1CSc1ccccc1-2
survivor count [9]: 6 of 6

O=C(O)/C=N/NS(=O)(=O)/C=C/c1ccccc1
T/C (dose: 12.5 mg/kg/injection, schedule: Q01DX009 (ip), vehicle: distilled water + Tween-80): 129 % of control | survivor count (dose: 200.0 mg/kg/injection, schedule: Q01DX009 (ip), vehicle: distilled water + Tween-80): 3 of 6

O=C(O)c1cc2cc([N+](=O)[O-])ccc2[se]1
survivor count [10]: 6 of 6

C=C1C[C@](C(N)=O)(C2OC3OC(C)(C)OC3C2OCc2ccccc2)OC1=O (stereo partly specified)
survivor count (dose: 200.0 mg/kg/injection, schedule: Q01DX001 (ip), vehicle: saline with Tween-80): 0 of 6 | survivor count (dose: 400.0 mg/kg/injection, schedule: Q01DX001 (ip), vehicle: saline with Tween-80): 0 of 6

CCN(CC)CCNc1cc(O)c2c(c1O)C(=O)c1ccccc1C2=O
survivor count (dose: 200.0 mg/kg/injection, schedule: Q04DX002 (ip), vehicle: saline with Tween-80): 2 of 5 | survivor count [9]: 0 of 5

CCN=NNc1ccc(C)cc1
T/C (dose: 50.0 mg/kg/injection, schedule: Q01DX009 (ip), vehicle: saline with Tween-80): 125 % of control | T/C [2]: 130 % of control [5 of 6 alive]

OC(Cc1cccnc1)(c1ccccc1)c1cccc2ccccc12 (stereo unspecified)
survivor count [11]: 5 of 6

CC1(c2ccc(N)cc2)NC(=O)NC1=O (stereo unspecified)
survivor count (dose: 200.0 mg/kg/injection, schedule: Q01DX009 (ip), vehicle: Klucel (hydroxypropylcellulose) (HPC)): 5 of 6

Cc1cccc2c1C(=O)N(CC[P+](c1ccccc1)(c1ccccc1)c1ccccc1)C2=O
T/C (dose: 1.56 mg/kg/injection, schedule: Q01DX009 (ip), vehicle: water): 131 % of control | T/C (dose: 3.13 mg/kg/injection, schedule: Q01DX009 (ip), vehicle: water): 140 % of control | T/C (dose: 4.5 mg/kg/injection, schedule: Q01DX009 (ip), vehicle: water): 129 % of control | T/C [12]: 137 % of control | T/C (dose: 6.75 mg/kg/injection, schedule: Q01DX009 (ip), vehicle: water): 133 % of control | survivor count [13]: 6 of 6 | survivor count [14]: 1 of 6

O=NNc1nc2ncccc2cc1-c1ccccc1Cl
T/C [12]: 133 and 141 % of control | T/C [13]: 132 % of control | T/C [14]: 132 % of control | survivor count (dose: 50.0 mg/kg/injection, schedule: Q01DX009 (ip), vehicle: water): 5 of 6 and 6 of 6

CCCCOC1OCN(C2CCCCC2)CC1(C)C (stereo unspecified)
T/C [2]: 128 and 129 % of control [5 of 6 alive] | T/C [1]: 126 and 145 % of control

CN1CCC(OC(=O)c2ccc3c(c2)OCO3)CC1
survivor count (dose: 100.0 mg/kg/injection, schedule: Q04DX003 (ip), vehicle: saline with Tween-80): 1 of 6 | survivor count (dose: 200.0 mg/kg/injection, schedule: Q04DX003 (ip), vehicle: saline with Tween-80): 0 of 6 | survivor count [11]: 0 of 6

Cc1ccc(NC(=S)NNC(=O)CN2C(=O)c3ccccc3C2=O)cc1
survivor count (dose: 100.0 mg/kg/injection, schedule: Q01DX001 (ip), vehicle: Klucel (hydroxypropylcellulose) (HPC)): 6 of 6 | survivor count (dose: 200.0 mg/kg/injection, schedule: Q01DX001 (ip), vehicle: Klucel (hydroxypropylcellulose) (HPC)): 5 of 6

CC(=O)OCN(C)C=O
survivor count (dose: 1000.0 mg/kg/injection, schedule: Q01DX005 (ip), vehicle: water): 1 of 5

CC1(C)C2CCC1(CS(=O)O)C(=O)C2.[Ag] (stereo unspecified)
survivor count [5]: 0 of 6

O=NN(C(=O)NC1CCC(O)CC1)C1CCC(O)CC1 (stereo unspecified)
survivor count (dose: 400.0 mg/kg/injection, schedule: Q01DX001 (ip), vehicle: distilled water + Tween-80): 0 of 6

CC(=O)c1ccc[n+](Cc2c(Cl)cccc2Cl)c1
survivor count (dose: 50.0 mg/kg/injection, schedule: Q01DX009 (ip), vehicle: saline): 3 of 6 | survivor count [10]: 3 of 6

CCc1nc(N)nc(N)c1-c1ccc(N2CCOCC2)c(N=[N+]=[N-])c1
survivor count [6]: 1 of 6 | survivor count [7]: 0 of 6 | survivor count [8]: 0 of 6

O=C(O)c1cc(-c2ccc(Cl)cc2)nc2c1ccc1ccccc12
survivor count [8]: 0 of 6

CCCCCCOC(=O)C1=C(NC)CCC1
survivor count (dose: 200.0 mg/kg/injection, schedule: Q01DX009 (ip), vehicle: saline): 4 of 6

CC1CC(c2ccccc2)(c2ccccc2)CN1C (stereo unspecified)
survivor count [4]: 3 of 5 | survivor count [5]: 0 of 5
